Data as given in the supplement of paper PMC10849652.
The other results are listed elsewhere or left out.

By UniProt entry, the sequences of proteins in these tests, tags left out. Where a name states a change or a piece, a line headed by the entry shows the natural chain unless it says otherwise.
UniProt Q9Y5K5, whole entry, looked up: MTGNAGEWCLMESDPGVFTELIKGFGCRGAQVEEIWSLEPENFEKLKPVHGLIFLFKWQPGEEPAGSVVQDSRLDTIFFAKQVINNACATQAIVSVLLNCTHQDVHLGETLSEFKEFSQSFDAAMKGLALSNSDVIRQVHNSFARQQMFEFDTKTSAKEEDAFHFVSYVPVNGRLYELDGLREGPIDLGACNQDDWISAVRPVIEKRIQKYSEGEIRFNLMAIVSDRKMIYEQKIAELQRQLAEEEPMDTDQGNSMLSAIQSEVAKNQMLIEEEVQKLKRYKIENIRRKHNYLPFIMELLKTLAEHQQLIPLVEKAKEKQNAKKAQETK
UniProt P11172: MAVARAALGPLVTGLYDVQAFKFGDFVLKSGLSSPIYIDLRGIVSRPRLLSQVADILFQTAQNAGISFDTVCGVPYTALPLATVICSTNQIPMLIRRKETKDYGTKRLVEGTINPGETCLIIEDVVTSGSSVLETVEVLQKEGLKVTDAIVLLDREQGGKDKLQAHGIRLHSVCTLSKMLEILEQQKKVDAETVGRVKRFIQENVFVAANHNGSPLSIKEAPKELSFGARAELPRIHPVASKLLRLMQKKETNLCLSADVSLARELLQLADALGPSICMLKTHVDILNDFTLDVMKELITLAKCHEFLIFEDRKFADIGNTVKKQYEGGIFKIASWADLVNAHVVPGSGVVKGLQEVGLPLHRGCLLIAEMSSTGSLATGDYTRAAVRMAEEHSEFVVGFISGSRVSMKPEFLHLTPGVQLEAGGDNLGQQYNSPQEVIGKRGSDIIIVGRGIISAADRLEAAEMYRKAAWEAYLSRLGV
UniProt Q96S82: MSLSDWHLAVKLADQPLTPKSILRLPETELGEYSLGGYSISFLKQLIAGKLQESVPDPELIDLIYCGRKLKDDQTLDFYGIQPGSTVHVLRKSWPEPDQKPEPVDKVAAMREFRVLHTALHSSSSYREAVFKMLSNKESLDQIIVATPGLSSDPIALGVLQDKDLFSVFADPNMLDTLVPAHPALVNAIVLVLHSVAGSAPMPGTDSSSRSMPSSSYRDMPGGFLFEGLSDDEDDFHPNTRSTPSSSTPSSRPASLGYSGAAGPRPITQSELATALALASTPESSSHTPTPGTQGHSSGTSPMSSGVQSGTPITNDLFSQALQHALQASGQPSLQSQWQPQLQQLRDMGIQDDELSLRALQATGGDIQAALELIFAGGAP
UniProt P31930: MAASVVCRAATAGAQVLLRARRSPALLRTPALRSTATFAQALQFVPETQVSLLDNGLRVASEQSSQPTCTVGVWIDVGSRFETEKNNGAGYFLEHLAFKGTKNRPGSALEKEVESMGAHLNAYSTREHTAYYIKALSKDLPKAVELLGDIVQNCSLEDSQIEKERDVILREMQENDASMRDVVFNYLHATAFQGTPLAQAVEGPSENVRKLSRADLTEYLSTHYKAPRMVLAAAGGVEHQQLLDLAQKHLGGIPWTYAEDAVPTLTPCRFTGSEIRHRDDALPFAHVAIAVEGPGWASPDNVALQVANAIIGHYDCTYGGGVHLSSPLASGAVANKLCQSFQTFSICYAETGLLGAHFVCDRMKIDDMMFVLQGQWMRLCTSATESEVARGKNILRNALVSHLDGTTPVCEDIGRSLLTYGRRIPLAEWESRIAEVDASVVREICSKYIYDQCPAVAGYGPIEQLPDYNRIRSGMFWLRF
UniProt Q9NZ43: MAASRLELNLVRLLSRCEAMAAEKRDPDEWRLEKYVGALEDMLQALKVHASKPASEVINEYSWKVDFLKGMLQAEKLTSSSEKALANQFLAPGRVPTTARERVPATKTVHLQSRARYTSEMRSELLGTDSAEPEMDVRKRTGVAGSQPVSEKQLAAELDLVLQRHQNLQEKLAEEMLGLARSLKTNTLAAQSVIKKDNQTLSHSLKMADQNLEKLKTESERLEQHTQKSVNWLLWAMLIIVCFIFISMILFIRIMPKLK
UniProt O94874: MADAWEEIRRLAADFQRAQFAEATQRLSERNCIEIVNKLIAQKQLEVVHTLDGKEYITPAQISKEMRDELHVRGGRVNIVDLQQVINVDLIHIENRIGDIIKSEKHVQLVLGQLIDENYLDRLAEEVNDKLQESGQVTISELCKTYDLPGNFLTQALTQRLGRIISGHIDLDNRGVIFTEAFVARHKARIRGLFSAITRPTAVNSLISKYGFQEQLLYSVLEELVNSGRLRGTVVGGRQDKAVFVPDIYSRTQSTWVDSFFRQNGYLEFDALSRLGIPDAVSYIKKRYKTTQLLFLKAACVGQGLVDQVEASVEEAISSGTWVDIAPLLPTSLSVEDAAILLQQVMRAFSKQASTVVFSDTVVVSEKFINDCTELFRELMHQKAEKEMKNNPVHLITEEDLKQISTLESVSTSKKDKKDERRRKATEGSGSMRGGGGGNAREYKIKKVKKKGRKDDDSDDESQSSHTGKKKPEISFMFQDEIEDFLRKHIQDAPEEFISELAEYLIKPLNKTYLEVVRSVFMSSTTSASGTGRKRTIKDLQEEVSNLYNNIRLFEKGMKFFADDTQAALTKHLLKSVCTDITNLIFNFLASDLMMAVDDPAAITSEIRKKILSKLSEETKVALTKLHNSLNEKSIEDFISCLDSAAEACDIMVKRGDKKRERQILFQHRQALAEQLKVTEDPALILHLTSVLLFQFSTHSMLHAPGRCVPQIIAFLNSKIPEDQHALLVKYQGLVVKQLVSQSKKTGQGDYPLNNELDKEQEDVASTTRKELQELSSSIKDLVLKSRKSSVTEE
UniProt Q9BV40: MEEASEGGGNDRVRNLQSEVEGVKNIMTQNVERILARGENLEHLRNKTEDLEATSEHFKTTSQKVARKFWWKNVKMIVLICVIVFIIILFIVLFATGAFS
UniProt Q9Y3C8: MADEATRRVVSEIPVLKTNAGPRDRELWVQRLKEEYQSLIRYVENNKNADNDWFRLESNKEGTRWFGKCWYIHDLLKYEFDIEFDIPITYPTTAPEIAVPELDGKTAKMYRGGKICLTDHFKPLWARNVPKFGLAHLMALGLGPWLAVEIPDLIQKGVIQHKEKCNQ
UniProt P07919: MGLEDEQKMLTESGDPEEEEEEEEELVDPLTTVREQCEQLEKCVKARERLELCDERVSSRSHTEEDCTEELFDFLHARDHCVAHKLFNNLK
UniProt Q9UHD9, whole entry, looked up: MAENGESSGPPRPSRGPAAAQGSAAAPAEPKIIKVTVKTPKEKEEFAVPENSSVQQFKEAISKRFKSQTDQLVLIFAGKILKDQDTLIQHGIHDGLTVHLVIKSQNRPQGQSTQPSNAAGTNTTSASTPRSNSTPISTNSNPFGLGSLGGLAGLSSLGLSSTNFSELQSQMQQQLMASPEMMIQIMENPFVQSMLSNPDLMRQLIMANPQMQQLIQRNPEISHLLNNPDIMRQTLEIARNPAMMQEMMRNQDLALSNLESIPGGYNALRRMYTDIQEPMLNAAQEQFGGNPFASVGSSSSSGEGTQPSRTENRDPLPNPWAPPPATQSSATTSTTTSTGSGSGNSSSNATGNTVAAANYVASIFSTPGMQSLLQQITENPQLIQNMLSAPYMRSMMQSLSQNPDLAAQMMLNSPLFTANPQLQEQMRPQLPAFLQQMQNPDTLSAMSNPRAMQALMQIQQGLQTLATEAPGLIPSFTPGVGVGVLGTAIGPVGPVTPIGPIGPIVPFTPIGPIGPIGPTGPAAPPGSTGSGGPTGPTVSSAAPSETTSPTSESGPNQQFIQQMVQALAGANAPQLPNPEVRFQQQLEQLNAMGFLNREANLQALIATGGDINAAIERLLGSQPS
UniProt Q16880: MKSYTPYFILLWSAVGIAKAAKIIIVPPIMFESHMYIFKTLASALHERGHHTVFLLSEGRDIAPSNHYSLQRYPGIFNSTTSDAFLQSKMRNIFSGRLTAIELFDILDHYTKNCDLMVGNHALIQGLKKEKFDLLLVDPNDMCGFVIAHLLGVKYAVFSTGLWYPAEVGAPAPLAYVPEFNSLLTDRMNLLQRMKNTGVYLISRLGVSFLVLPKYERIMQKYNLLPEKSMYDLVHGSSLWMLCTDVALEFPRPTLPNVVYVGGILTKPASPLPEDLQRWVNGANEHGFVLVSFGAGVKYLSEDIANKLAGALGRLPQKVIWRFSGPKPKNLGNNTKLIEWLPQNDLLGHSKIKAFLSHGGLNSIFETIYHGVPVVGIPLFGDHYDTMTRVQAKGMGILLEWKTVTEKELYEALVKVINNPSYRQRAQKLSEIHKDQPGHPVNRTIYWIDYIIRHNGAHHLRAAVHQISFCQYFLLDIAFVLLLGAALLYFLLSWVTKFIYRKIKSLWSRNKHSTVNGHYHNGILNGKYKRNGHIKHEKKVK
UniProt Q8TED0: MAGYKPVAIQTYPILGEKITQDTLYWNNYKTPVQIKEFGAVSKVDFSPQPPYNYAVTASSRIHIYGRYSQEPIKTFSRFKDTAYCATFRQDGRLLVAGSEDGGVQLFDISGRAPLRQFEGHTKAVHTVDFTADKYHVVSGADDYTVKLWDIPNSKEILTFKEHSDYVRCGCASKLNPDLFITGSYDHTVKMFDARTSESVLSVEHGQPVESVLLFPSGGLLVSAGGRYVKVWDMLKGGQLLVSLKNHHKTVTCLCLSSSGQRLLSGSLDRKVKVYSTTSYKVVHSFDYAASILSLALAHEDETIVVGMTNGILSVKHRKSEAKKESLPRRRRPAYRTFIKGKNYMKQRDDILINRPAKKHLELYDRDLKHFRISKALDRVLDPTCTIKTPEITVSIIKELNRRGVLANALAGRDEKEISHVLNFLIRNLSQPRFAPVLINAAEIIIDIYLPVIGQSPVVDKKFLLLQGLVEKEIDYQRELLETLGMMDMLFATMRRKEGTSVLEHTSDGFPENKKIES
UniProt Q9P0L0: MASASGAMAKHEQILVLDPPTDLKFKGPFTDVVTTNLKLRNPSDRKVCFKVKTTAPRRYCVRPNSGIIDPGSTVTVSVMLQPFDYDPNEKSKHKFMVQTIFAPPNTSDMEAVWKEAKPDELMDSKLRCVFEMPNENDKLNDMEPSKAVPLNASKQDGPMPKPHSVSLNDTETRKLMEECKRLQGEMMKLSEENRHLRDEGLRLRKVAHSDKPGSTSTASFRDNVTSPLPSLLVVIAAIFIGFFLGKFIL
UniProt Q14139: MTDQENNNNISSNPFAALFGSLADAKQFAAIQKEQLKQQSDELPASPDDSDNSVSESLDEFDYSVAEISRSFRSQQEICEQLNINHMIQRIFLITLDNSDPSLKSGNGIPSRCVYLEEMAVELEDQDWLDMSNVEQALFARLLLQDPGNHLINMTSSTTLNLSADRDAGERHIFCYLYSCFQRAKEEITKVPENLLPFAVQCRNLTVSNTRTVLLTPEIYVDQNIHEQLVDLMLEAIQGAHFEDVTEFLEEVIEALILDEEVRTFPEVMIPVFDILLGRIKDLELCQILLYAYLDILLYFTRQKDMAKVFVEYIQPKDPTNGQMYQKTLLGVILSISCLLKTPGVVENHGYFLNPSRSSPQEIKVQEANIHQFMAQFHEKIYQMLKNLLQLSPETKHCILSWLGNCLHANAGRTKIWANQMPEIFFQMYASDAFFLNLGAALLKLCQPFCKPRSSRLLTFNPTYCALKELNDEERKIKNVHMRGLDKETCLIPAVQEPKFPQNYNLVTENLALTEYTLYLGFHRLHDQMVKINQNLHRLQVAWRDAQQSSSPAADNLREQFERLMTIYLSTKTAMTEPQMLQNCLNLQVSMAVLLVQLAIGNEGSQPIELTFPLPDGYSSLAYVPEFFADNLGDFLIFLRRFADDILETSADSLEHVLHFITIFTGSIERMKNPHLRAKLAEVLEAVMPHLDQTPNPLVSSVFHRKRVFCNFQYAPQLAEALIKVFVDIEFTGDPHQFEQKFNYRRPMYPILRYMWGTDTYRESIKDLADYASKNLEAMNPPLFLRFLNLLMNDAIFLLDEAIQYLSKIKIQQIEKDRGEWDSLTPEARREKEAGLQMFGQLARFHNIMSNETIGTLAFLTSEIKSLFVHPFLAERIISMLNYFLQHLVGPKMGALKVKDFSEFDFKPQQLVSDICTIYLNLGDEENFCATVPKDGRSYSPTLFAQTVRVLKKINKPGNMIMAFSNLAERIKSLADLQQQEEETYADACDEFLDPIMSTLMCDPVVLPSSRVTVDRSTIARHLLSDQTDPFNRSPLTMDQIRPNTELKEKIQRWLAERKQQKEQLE

Experiments:
Test in all cases: log2 fold change, soluble protein after heating vs DMSO (PISA); higher = thermal stabilisation; K562 cells, 10 uM, 30 min; active = over 0.2 and 3.5 SD of the protein, either way, in both replicates (recomputed)
[1] = compound: Cc1ccc(NC(=O)c2ccc(CN3CC[C@H](N(C)C)C3)c(C(F)(F)F)c2)cc1Nc1nccc(-c2cncnc2)n1 [bafetinib]
Outline: (§1)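 For each measurement, 10 μM compound was applied for 30 min to K562 cells at 2×10^6 cells/mL. Aliquots were heated for 3 min across 48°C-58°C, pooled, and extracted in PBS with 0.5% NP-40 at 4°C; the supernatant after 21,000xg for 90 min was soluble protein. This was quantified by TMTpro 16plex LC-MS/MS with channel sums equalised, and thermal stability was reported relative to control samples from duplicates, on a log2 fold-change scale.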

[2] = compound: Cc1cccc(CC(=O)N2CCc3c2ccc(-c2cn(C)c4ncnc(N)c24)c3F)n1
Outline: as §1

[3] = compound: Cc1cn(-c2cc(NC(=O)c3ccc(C)c(Nc4nccc(-c5cccnc5)n4)c3)cc(C(F)(F)F)c2)cn1 [nilotinib]
Outline: as §1

[4] = compound: Cc1nc(Nc2n[nH]c3c2CN(C(=O)N[C@H](CN(C)C)c2ccccc2)C3(C)C)c2sccc2n1
Outline: as §1

[5] = compound: Cc1nc(Nc2ncc(C(=O)Nc3c(C)cccc3Cl)s2)cc(N2CCN(CCO)CC2)n1 [dasatinib]
Outline: as §1

[6] = compound: Cc1ncc(-c2ccnc(Nc3ccc(S(C)(=O)=O)cc3)n2)n1C(C)C
Outline: as §1

[7] = compound: Cn1cc(-c2ccc3c(c2)CCN3C(=O)Cc2cccc(C(F)(F)F)c2)c2c(N)ncnc21
Outline: as §1

[8] = compound: Cn1cc(-c2ccc3nnc(C(F)(F)c4ccc5ncccc5c4)n3n2)cn1
Outline: as §1

[9] = compound: Cn1cncc1[C@@](N)(c1ccc(Cl)cc1)c1ccc2c(c1)c(-c1cccc(Cl)c1)cc(=O)n2C [tipifarnib]
Outline: as §1

[10] = compound: FC(F)(F)c1ccc(/C=C/c2nc(COc3ccc(CCCCn4ccnn4)cc3)co2)cc1 [mubritinib]
Outline: as §1

[11] = compound: NC(=O)Nc1cc(-c2cccc(F)c2)sc1C(=O)N[C@H]1CCCNC1
Outline: as §1

[12] = compound: NC(=O)c1cnc(N[C@@H]2CCCC[C@@H]2N)nc1Nc1cccc(-n2nccn2)c1
Outline: as §1

[13] = compound: NC1(c2ccc(-c3nc4ccn5c(=O)[nH]nc5c4cc3-c3ccccc3)cc2)CCC1
Outline: as §1

[14] = compound: NCC(=O)Nc1ccc(-n2nc(C(F)(F)F)cc2-c2ccc3c(ccc4ccccc43)c2)cc1
Outline: as §1

[15] = compound: Nc1ccccc1NC(=O)c1ccc(CNC(=O)OCc2cccnc2)cc1 [entinostat]
Outline: as §1

[16] = compound: O=C(CCCCCCC(=O)Nc1ccccc1)NO [vorinostat]
Outline: as §1

[17] = compound: O=C(CCCCCCNC(=O)c1cnc(N(c2ccccc2)c2ccccc2Cl)nc1)NO [citarinostat]
Outline: as §1

[18] = compound: O=C(O)c1ccc2c(c1)nc(Nc1cccc(Cl)c1)c1ccncc12 [silmitasertib]
Outline: as §1

[19] = compound: O=C1NC(=O)C(c2cnc3ccccn23)=C1c1cn2c3c(cc(F)cc13)CN(C(=O)N1CCCCC1)CC2
Outline: as §1

[20] = compound: c1cc(OCCN2CCCCC2)cc(-c2n[nH]c3ccc(-c4nnc[nH]4)cc23)c1
Outline: as §1

Measured: log2 fold change

UCHL5 (UniProt Q9Y5K5)
inactive: [1] 0.014 | [2] 0.045 | [3] -0.06 | [4] -0.071 | [5] -0.152 | [6] 0.007 | [7] 0.012 | [8] 0 | [9] -0.093 | [10] -0.001 | [11] -0.003 | [12] -0.029 | [13] -0.124 | [14] -0.045 | [15] 0.048 | [16] 0.063 | [17] 0.08 | [18] 0.04 | [19] -0.084 | [20] -0.026

UMPS (UniProt P11172)
inactive: [1] -0.027 | [2] -0.035 | [3] 0.024 | [4] -0.017 | [5] 0.006 | [6] -0.007 | [7] 0.02 | [8] 0.022 | [9] -0.025 | [10] 0.049 | [11] 0 | [12] -0.008 | [13] -0.028 | [14] 0.024 | [15] 0.012 | [16] 0.018 | [17] 0.031 | [18] -0.028 | [19] 0 | [20] 0.007

UBL7 (UniProt Q96S82)
inactive: [1] -0.037 | [2] -0.077 | [3] -0.008 | [4] -0.015 | [5] 0 | [6] -0.015 | [7] 0.097 | [8] 0.047 | [9] 0.01 | [10] 0.108 | [11] -0.093 | [12] -0.035 | [13] -0.047 | [14] -0.11 | [15] 0.125 | [16] -0.018 | [17] 0.057 | [18] 0.027 | [19] -0.092 | [20] 0.012

UQCRC1 (UniProt P31930)
inactive: [1] 0.017 | [2] -0.079 | [3] 0.024 | [4] -0.006 | [5] 0.014 | [6] -0.025 | [7] 0.033 | [8] 0.012 | [9] 0.028 | [10] 0.033 | [11] 0.008 | [12] 0.03 | [13] 0.033 | [14] 0.018 | [15] 0.005 | [16] -0.041 | [17] -0.008 | [18] -0.01 | [19] -0.071 | [20] -0.008

USE1 (UniProt Q9NZ43)
inactive: [1] 0.009 | [2] -0.026 | [3] -0.012 | [4] -0.002 | [5] 0.064 | [6] -0.013 | [7] 0.02 | [8] -0.049 | [9] 0.012 | [10] 0.056 | [11] -0.011 | [12] -0.012 | [13] -0.064 | [14] 0.01 | [15] -0.007 | [16] 0.028 | [17] 0.045 | [18] 0.016 | [19] 0.001 | [20] -0.013

UFL1 (UniProt O94874)
inactive: [1] 0.032 | [2] 0.018 | [3] -0.119 | [4] -0.009 | [5] -0.165 | [6] 0.083 | [7] -0.013 | [8] -0.007 | [9] -0.052 | [10] 0.062 | [11] -0.06 | [12] -0.013 | [13] -0.107 | [14] -0.066 | [15] 0.059 | [16] 0.074 | [17] 0.063 | [18] 0.029 | [19] -0.013 | [20] -0.048

VAMP8 (UniProt Q9BV40)
inactive: [1] -0.108 | [2] -0.04 | [3] 0.022 | [4] -0.029 | [5] 0.073 | [6] 0.011 | [7] 0.012 | [8] 0.085 | [9] 0.066 | [10] 0.018 | [11] 0.013 | [12] 0.077 | [13] -0.005 | [14] -0.046 | [15] 0.005 | [16] -0.102 | [17] 0 | [18] 0.021 | [19] 0.068 | [20] -0.004

UFC1 (UniProt Q9Y3C8)
inactive: [1] -0.004 | [2] 0.008 | [3] 0.026 | [4] 0.018 | [5] 0.026 | [6] -0.004 | [7] 0.04 | [8] 0.02 | [9] -0.007 | [10] -0.029 | [11] -0.005 | [12] 0.029 | [13] 0.048 | [14] 0.065 | [15] -0.015 | [16] -0.049 | [17] -0.023 | [18] -0.022 | [19] -0.057 | [20] 0.132

2 records picked at random from those above, as already listed:
VAMP8 (UniProt Q9BV40)
inactive: [1] -0.108 | [2] -0.04 | [3] 0.022 | [4] -0.029 | [5] 0.073 | [6] 0.011 | [7] 0.012 | [8] 0.085 | [9] 0.066 | [10] 0.018 | [11] 0.013 | [12] 0.077 | [13] -0.005 | [14] -0.046 | [15] 0.005 | [16] -0.102 | [17] 0 | [18] 0.021 | [19] 0.068 | [20] -0.004

UFL1 (UniProt O94874)
inactive: [1] 0.032 | [2] 0.018 | [3] -0.119 | [4] -0.009 | [5] -0.165 | [6] 0.083 | [7] -0.013 | [8] -0.007 | [9] -0.052 | [10] 0.062 | [11] -0.06 | [12] -0.013 | [13] -0.107 | [14] -0.066 | [15] 0.059 | [16] 0.074 | [17] 0.063 | [18] 0.029 | [19] -0.013 | [20] -0.048

Later entries:

UQCRH (UniProt P07919)
inactive: [1] -0.056 | [2] 0.014 | [3] -0.038 | [4] 0.055 | [5] 0.02 | [6] -0.07 | [7] 0.035 | [8] 0.041 | [9] -0.031 | [10] -0.01 | [11] -0.033 | [12] -0.022 | [13] -0.013 | [14] -0.001 | [15] -0.01 | [16] -0.009 | [17] 0.016 | [18] 0.049 | [19] -0.032 | [20] 0.093

USP19 isoform 6 (UniProt O94966)
inactive: [1] 0.016 | [2] -0.004 | [3] -0.017 | [4] -0.003 | [5] -0.076 | [6] 0.008 | [7] -0.029 | [8] -0.006 | [9] -0.038 | [10] 0.02 | [11] -0.015 | [12] -0.036 | [13] -0.033 | [14] 0.006 | [15] 0.022 | [16] 0.042 | [17] 0.01 | [18] -0.009 | [19] -0.05 | [20] -0.055

UBQLN2 (UniProt Q9UHD9)
inactive: [1] -0.005 | [2] 0.05 | [3] -0.014 | [4] -0.018 | [5] 0.038 | [6] -0.011 | [7] 0.027 | [8] 0.04 | [9] -0.087 | [10] 0.058 | [11] 0.033 | [12] 0.031 | [13] -0.033 | [14] 0.025 | [15] 0.025 | [16] -0.007 | [17] 0.089 | [18] 0.015 | [19] -0.006 | [20] -0.031

UGT8 (UniProt Q16880)
inactive: [1] 0.031 | [2] 0.158 | [3] 0.252 | [4] 0.134 | [5] 0.027 | [6] -0.105 | [7] 0.067 | [8] 0.082 | [9] 0.373 | [10] 0.088 | [11] -0.049 | [12] 0.104 | [13] -0.011 | [14] -0.132 | [15] -0.107 | [16] 0.047 | [17] -0.035 | [18] -0.055 | [19] 0.308 | [20] -0.141

UTP15 (UniProt Q8TED0)
inactive: [1] 0.205 | [2] 0.011 | [3] -0.067 | [4] 0.164 | [5] 0.097 | [6] 0.091 | [7] -0.255 | [8] -0.205 | [9] 0.233 | [10] -0.173 | [11] 0.041 | [12] 0.141 | [13] 0.274 | [14] 0.084 | [15] -0.089 | [16] -0.025 | [17] -0.1 | [18] 0.2 | [19] 0.251 | [20] -0.158

VAPA (UniProt Q9P0L0)
inactive: [1] 0.061 | [2] -0.176 | [3] -0.038 | [4] -0.008 | [5] 0.031 | [6] 0.004 | [7] 0.01 | [8] 0.015 | [9] -0.02 | [10] 0.004 | [11] 0.003 | [12] -0.029 | [13] -0.001 | [14] -0.054 | [15] 0.004 | [16] -0.101 | [17] 0.042 | [18] 0.017 | [19] -0.028 | [20] -0.007

USP47 (UniProt Q96K76)
inactive: [1] 0.06 | [2] -0.001 | [3] -0.065 | [4] -0.12 | [5] -0.011 | [6] 0.014 | [7] -0.094 | [8] -0.067 | [9] -0.027 | [10] -0.079 | [11] -0.05 | [12] -0.126 | [13] -0.138 | [14] -0.09 | [15] 0.019 | [16] 0.052 | [17] 0.029 | [18] 0.117 | [19] 0.067 | [20] -0.096

UBE4A isoform 2 (UniProt Q14139)
inactive: [1] 0.01 | [2] 0.065 | [3] -0.111 | [4] -0.162 | [5] -0.196 | [6] 0.015 | [7] -0.183 | [8] -0.023 | [9] -0.092 | [10] 0.021 | [11] -0.017 | [12] 0.01 | [13] -0.136 | [14] 0.001 | [15] 0.146 | [16] 0.133 | [17] 0.059 | [18] 0.117 | [19] 0.026 | [20] -0.014
